Primary screen of a compound library

The values are deposited in ChEMBL (CHEMBL3988442, “University of Dundee, Small-Polar-MMV Screening Library” (2021)).

A: 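Whole-cell assay for inhibitors of Mycobacterium tuberculosis growth, labelled Cornell in the record; the read-out is not stated. The concentration is filed as 10 mM, unlikely as a test dose, so the dose is not known. Higher means stronger inhibition (inferred from two other growth screens of the library). About 53,000 compounds were tested under these conditions; 1.7% (about 900) showed 50% or more at least once.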
B: 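Assay on Mycobacterium tuberculosis, filed only as a heat shock assay from Cornell; the read-out is not stated. The concentration is filed as 10 mM, unlikely as a test dose, so the dose is not known. The record gives no direction; compounds that gave an IC50 in retests scored well above the rest, so higher reads as stronger inhibition. About 69,000 compounds were tested under these conditions; 1.4% (about 930) showed 50% or more at least once.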

The filed quantity is “Percent Effect” (%).
The controls that fix the scale are not given in the record; negative values are as filed.
Compounds were drawn at random from those tested, without regard to their results.

{"compound": "Cc1noc(C)c1CN1CCN(c2ccnc(-c3ccccc3)n2)CC1", "A": -3.203, "B": -13.22}
{"compound": "COCCOc1ccccc1CNCC1COC2(CCCC2)O1", "stereo": "stereo not given", "A": 18.03, "B": -2.309}
{"compound": "CSc1ccccc1C(=O)NCCC(O)c1ccco1", "stereo": "stereo not given", "A": -12.5, "B": -13.93}
{"compound": "CN(Cc1cnn(-c2ccccc2)n1)C1CCCN(c2cccnn2)C1", "stereo": "stereo not given", "B": -16.73}
{"compound": "COCC1COCCC12CCN(C(=O)COc1ccccc1C)CC2", "stereo": "stereo not given", "A": -10.81, "B": -29.9}
{"compound": "[H][C@@]12CN(C(C)=O)C[C@]1(C(=O)N(C)C)CCC21CCN(S(=O)(=O)CC)CC1", "A": -51.97, "B": 17.82}
{"compound": "CC1CCN(C(=O)Cn2nc(Br)nc2Br)CC1", "A": 31.87, "B": 8.179}
{"compound": "CCC(C)c1noc(C2CCN(C(=O)c3cccnc3)CC2)n1", "stereo": "stereo not given", "A": -34.27, "B": -14.96}
{"compound": "N#Cc1cccnc1NCCC1CCN(CC(F)(F)F)CC1", "A": 21.68, "B": -16.63}
{"compound": "CC1CCCCN1C(=O)c1ccc(Br)s1", "stereo": "stereo not given", "B": 4.011}
{"compound": "Cn1ccc(-c2cc(C(=O)N3CCCCC3)c3ccccn23)n1", "A": 31.04, "B": 2.688}
{"compound": "CCc1nc2n(n1)CC(NCCc1cccs1)CC2", "stereo": "stereo not given", "A": 0.1049, "B": -1.768}
{"compound": "Cc1ccc(CN(C)C(C(=O)O)c2ccc3c(c2)OCO3)o1", "stereo": "stereo not given", "B": -10.92}
{"compound": "CCS(=O)(=O)CC(=O)NC(c1ccc(F)cc1)C1CCCC1", "stereo": "stereo not given", "A": 8.534, "B": 6.455}
{"compound": "O=C1CC(c2ccsc2)c2cnn(C3CCCC3)c2N1", "stereo": "stereo not given", "A": 47.58, "B": 14.19}
{"compound": "CN(C)c1nc(N)nc(CSCCC(=O)Nc2ccc(F)cc2)n1", "A": 28.95, "B": -11.62}
{"compound": "CN(C)CCN1CCCC12CCN(C(=O)c1cccn1C)CC2.O=C(O)C(F)(F)F.O=C(O)C(F)(F)F", "A": 8.237, "B": 6.417}
{"compound": "[H][C@@]12C[C@H](C)O[C@]1([H])CCN(C(=O)CCOc1ccccc1)C2", "A": 1.409, "B": 15.6}
{"compound": "CC(C)Oc1cccc(CNC(=O)NC(C)(C(=O)O)c2ccco2)c1", "stereo": "stereo not given", "A": 37.32, "B": 14.88}
{"compound": "Br.COc1ccc(OCCc2cc(C3CCN(CC(C)C)C3)n[nH]2)cc1", "stereo": "stereo not given", "A": 44.88, "B": 4.902}
{"compound": "Cc1[nH]n(-c2ccccc2)c2nnc(N)c1-2", "A": 107.4, "B": -27.34}
{"compound": "CC(=O)N1CCC(N2C[C@@H](F)[C@@H](OCc3nc4ncccc4[nH]3)C2)CC1", "A": 2.608, "B": -0.4312}
{"compound": "C[C@@H]1CN(CCOc2ccc(F)cc2)CC[C@@]1(O)C1CCOCC1", "A": 21.41, "B": 6.478}
{"compound": "Cc1ccc(-n2nnc(C(=O)NCC3(CO)CC3)c2C2CC2)cc1", "A": -1.071, "B": 4.38}

For reference, 3 entries once more:

Compound	A	B
CC(C)Oc1cccc(CNC(=O)NC(C)(C(=O)O)c2ccco2)c1 (stereo not given)	37.32%	14.88%
CSc1ccccc1C(=O)NCCC(O)c1ccco1 (stereo not given)	-12.5%	-13.93%
CCC(C)c1noc(C2CCN(C(=O)c3cccnc3)CC2)n1 (stereo not given)	-34.27%	-14.96%